According to the supplement of paper PMC4604168 (melanoma cell lines):
This is one part of the list. Repeats are few or missing, and single values can be far off.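 Cells were imaged in 1,536-well plates, and nuclei stained with an antibody against cleaved PARP were counted against all DNA-stained nuclei to give the apoptosis fraction. Screening doses were chosen to leave most cells alive, and resting and induced cleaved-PARP levels differ strongly between cell lines.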

Key:
Test in all cases: cleaved PARP positive nuclei fraction relative to DMSO control; melanoma cells; higher = more apoptosis
Details in all cases: library dose: low library concentration; 72 h
MZ2-MEL = tested on: MZ2-MEL
MeWo = tested on: MeWo
RPMI7951 = tested on: RPMI7951
RVH-421 = tested on: RVH-421
SkMel28 = tested on: SkMel28
SkMel2 = tested on: SkMel2
SkMel30 = tested on: SkMel30
SkMel5 = tested on: SkMel5
UACC257 = tested on: UACC257
UACC62 = tested on: UACC62

SMILES | cleaved PARP positive nuclei fraction (MZ2-MEL) | cleaved PARP positive nuclei fraction (MeWo) | cleaved PARP positive nuclei fraction (RPMI7951) | cleaved PARP positive nuclei fraction (RVH-421) | cleaved PARP positive nuclei fraction (SkMel28) | cleaved PARP positive nuclei fraction (SkMel2) | cleaved PARP positive nuclei fraction (SkMel30) | cleaved PARP positive nuclei fraction (SkMel5) | cleaved PARP positive nuclei fraction (UACC257) | cleaved PARP positive nuclei fraction (UACC62)
COc1ccc(C2=N[C@@H](c3ccc(Cl)cc3)[C@@H](c3ccc(Cl)cc3)N2C(=O)N2CCNC(=O)C2)c(OC(C)C)c1 [Nutlin-3] + N#Cc1c(O)c2c(-c3ccc(-c4ccccc4O)cc3)csc2[nH]c1=O [A769662] (first compound 0.1 µM, partner dose 2 µM) | 99.2% | 103% | 275% | 145% | 51.1% | 105% | 40% | 217% | 95.7% | 105%
CS(=O)(=O)c1ccc(C(=O)Nc2ccc(Cl)c(-c3ccccn3)c2)c(Cl)c1 [vismodegib] + Cn1cncc1[C@@](N)(c1ccc(Cl)cc1)c1ccc2c(c1)c(-c1cccc(Cl)c1)cc(=O)n2C [tipifarnib] (first compound 1 µM, partner dose 0.01 µM) | 128% | 102% | 77.2% | 81% | 56.9% | 92.1% | 196% | 43.2% | 90.8% | 74.6%
CCN(CC)CCNC(=O)c1c(C)[nH]c(/C=C2\C(=O)Nc3ccc(F)cc32)c1C [sunitinib] + CCN(CC)CCCCNc1ncc2cc(-c3cc(OC)cc(OC)c3)c(NC(=O)NC(C)(C)C)nc2n1 [PD173074] (first compound 0.4 µM, partner dose 0.1 µM) | 99% | 126% | 42% | 205% | 177% | 148% | 132% | 65.1% | 134% | 272%
NC(=O)c1ccc(N(C(N)=O)c2c(F)cccc2F)nc1-c1ccc(F)cc1F + C[C@@H]1CCN(C(=O)CC#N)C[C@@H]1N(C)c1ncnc2[nH]ccc12 [CP690550] (first compound 0.4 µM, partner dose 1 µM) | 121% | 220% | 101% | 91.5% | 53.8% | 197% | 54.4% | 149% | 110% | 126%
C[C@]1(O)C[C@@H](c2nc(-c3ccc4ccc(-c5ccccc5)nc4c3)c3c(N)nccn32)C1 + NCC(=O)Nc1ccc(-n2nc(C(F)(F)F)cc2-c2ccc3c(ccc4ccccc43)c2)cc1 [OSU03012] (first compound 0.4 µM, partner dose 1 µM) | 92.8% | 62.6% | 58.8% | 205% | 237% | 139% | 124% | 80.4% | 195% | 168%
C[C@@H](N)c1ccc(C(=O)Nc2ccnc3[nH]ccc23)cc1 + CN(NC(=O)CC(=O)NN(C)C(=S)c1ccccc1)C(=S)c1ccccc1 [STA4783] (first compound 0.4 µM, partner dose 0.006 µM) | 290% | 475% | 60.6% | 59% | 571% | 71.2% | 34.6% | 101% | 241% | 1130%
CN(c1ncccc1CNc1nc(Nc2ccc3c(c2)CC(=O)N3)ncc1C(F)(F)F)S(C)(=O)=O + COc1ccc2c(c1)CCC1C2CCC2(C)C(NCCCCCCN3C(=O)C=CC3=O)CCC12 [U73122] (first compound 0.08 µM, partner dose 0.4 µM) | 31.1% | 109% | 107% | 111% | 39.5% | 164% | 31.7% | 90% | 191% | 87.7%
CC(=O)O[C@@]12CO[C@@H]1C[C@H](O)[C@@]1(C)C(=O)[C@H](O)C3=C(C)[C@@H](OC(=O)[C@H](O)[C@@H](NC(=O)OC(C)(C)C)c4ccccc4)C[C@@](O)([C@@H](OC(=O)c4ccccc4)[C@H]21)C3(C)C [Docetaxel] + O=C(O)C(=O)Nc1sc2c(c1C(=O)O)CCNC2 [TCS401] (first compound 0.0001 µM, partner dose 1.66667 µM) | 434% | 556% | 185% | 121% | 598% | 629% | 232% | 169% | 348% | 640%
NC1(c2ccc(-c3nc4ccn5c(=O)[nH]nc5c4cc3-c3ccccc3)cc2)CCC1 + COc1cc2ncnc(Nc3ccc(Oc4ccccc4)cc3)c2cc1OC [SrcI1] (first compound 0.4 µM, partner dose 2 µM) | 167% | 33.8% | 85.4% | 214% | 219% | 100% | 129% | 31.4% | 156% | 458%
CCN(CC)CCNC(=O)c1c(C)[nH]c(/C=C2\C(=O)Nc3ccc(F)cc32)c1C [sunitinib] + CCc1ccc(CCOc2ccc(CC3SC(=O)NC3=O)cc2)nc1 [pioglitazone] (first compound 0.4 µM, partner dose 2 µM) | 50.3% | 60.3% | 83.3% | 89% | 134% | 57.7% | 107% | 74.2% | 85.5% | 132%
CS(=O)(=O)c1ccc(C(=O)Nc2ccc(Cl)c(-c3ccccn3)c2)c(Cl)c1 [vismodegib] + NCC(=O)Nc1ccc(-n2nc(C(F)(F)F)cc2-c2ccc3c(ccc4ccccc43)c2)cc1 [OSU03012] (first compound 1 µM, partner dose 1 µM) | 109% | 89.4% | 94.4% | 222% | 218% | 181% | 70.9% | 102% | 170% | 131%
CCN(CC)CCNC(=O)c1c(C)[nH]c(/C=C2\C(=O)Nc3ccc(F)cc32)c1C [sunitinib] + Cc1cc([N+](=O)[O-])ccc1NS(=O)(=O)c1cc(Cl)ccc1Cl [FH535] (first compound 0.4 µM, partner dose 1 µM) | 128% | 157% | 208% | 99.1% | 234% | 81.1% | 332% | 217% | 59.5% | 163%
CN(c1ncccc1CNc1nc(Nc2ccc3c(c2)CC(=O)N3)ncc1C(F)(F)F)S(C)(=O)=O + C[C@@H]1CCN(C(=O)CC#N)C[C@@H]1N(C)c1ncnc2[nH]ccc12 [CP690550] (first compound 0.08 µM, partner dose 1 µM) | 128% | 163% | 64.6% | 25.3% | 160% | 99.9% | 140% | 80.5% | 137% | 145%
Cn1sc(=O)n(Cc2ccccc2)c1=O + CN(C)S(=O)(=O)c1ccc2c(c1)/C(=C/c1cc3c([nH]1)CCCC3)C(=O)N2 [SU6656] (first compound 0.4 µM, partner dose 0.4 µM) | 60.1% | 109% | 171% | 45% | 67.4% | 60.6% | 298% | 34.2% | 74.4% | 79.7%
NC1(c2ccc(-c3nc4ccn5c(=O)[nH]nc5c4cc3-c3ccccc3)cc2)CCC1 + COc1ccc2c(c1)CCC1C2CCC2(C)C(NCCCCCCN3C(=O)C=CC3=O)CCC12 [U73122] (first compound 0.4 µM, partner dose 0.4 µM) | 147% | 19.4% | 45.5% | 124% | 151% | 63.4% | 242% | 80.4% | 34% | 178%
C[C@@H](N)c1ccc(C(=O)Nc2ccnc3[nH]ccc23)cc1 + COc1cc2c(Oc3ccc4[nH]c(C)cc4c3F)ncnc2cc1OCCCN1CCCC1 [cediranib] (first compound 0.4 µM, partner dose 0.4 µM) | 248% | 108% | 354% | 82.6% | 269% | 187% | 59.7% | 99.5% | 72.8% | 160%
C[C@@H](N)c1ccc(C(=O)Nc2ccnc3[nH]ccc23)cc1 + Cc1ccc(NC(=O)c2cccc(N(C)C)c2)cc1NC(=O)c1ccc(O)cc1 [ZM336372] (first compound 0.4 µM, partner dose 2 µM) | 179% | 107% | 107% | 77.5% | 167% | 118% | 67.5% | 109% | 123% | 105%
CS(=O)(=O)c1ccc(C(=O)Nc2ccc(Cl)c(-c3ccccn3)c2)c(Cl)c1 [vismodegib] + O=C(O)C(=O)Nc1sc2c(c1C(=O)O)CCNC2 [TCS401] (first compound 1 µM, partner dose 1.66667 µM) | 119% | 45.7% | 37.5% | 79.2% | 53.9% | 175% | 155% | 77.2% | 115% | 232%
NC1(c2ccc(-c3nc4ccn5c(=O)[nH]nc5c4cc3-c3ccccc3)cc2)CCC1 + Cn1cncc1[C@@](N)(c1ccc(Cl)cc1)c1ccc2c(c1)c(-c1cccc(Cl)c1)cc(=O)n2C [tipifarnib] (first compound 0.4 µM, partner dose 0.01 µM) | 75.8% | 132% | 141% | 29.5% | 173% | 101% | 70.1% | 104% | 111% | 460%
CN(c1ncccc1CNc1nc(Nc2ccc3c(c2)CC(=O)N3)ncc1C(F)(F)F)S(C)(=O)=O + Cc1cc(N2CCOCC2)cc2[nH]c(-c3c(NC[C@@H](O)c4cccc(Cl)c4)cc[nH]c3=O)nc12 [BMS536924] (first compound 0.08 µM, partner dose 0.2 µM) | 264% | 240% | 170% | 118% | 54% | 186% | 71.5% | 72.7% | 44.7% | 108%
C[C@]1(O)C[C@@H](c2nc(-c3ccc4ccc(-c5ccccc5)nc4c3)c3c(N)nccn32)C1 + O=C1NC(=O)/C(=C/c2ccc(-c3ccc(F)cc3O)o2)S1 [AS252424] (first compound 0.4 µM, partner dose 1 µM) | 255% | 54.8% | 124% | 110% | 117% | 142% | 88.5% | 66.8% | 220% | 77.7%
C[C@@H](N)c1ccc(C(=O)Nc2ccnc3[nH]ccc23)cc1 + c1cc(-c2cnn3cc(-c4ccc(OCCN5CCCCC5)cc4)cnc23)ccn1 [Dorsomorphin] (first compound 0.4 µM, partner dose 0.4 µM) | 160% | 124% | 210% | 496% | 173% | 57.6% | 108% | 52% | 116% | 223%

A different layout for some results above.
SMILES	cleaved PARP positive nuclei fraction (MZ2-MEL)	cleaved PARP positive nuclei fraction (MeWo)	cleaved PARP positive nuclei fraction (RPMI7951)	cleaved PARP positive nuclei fraction (RVH-421)	cleaved PARP positive nuclei fraction (SkMel28)	cleaved PARP positive nuclei fraction (SkMel2)	cleaved PARP positive nuclei fraction (SkMel30)	cleaved PARP positive nuclei fraction (SkMel5)	cleaved PARP positive nuclei fraction (UACC257)	cleaved PARP positive nuclei fraction (UACC62)
C[C@@H](N)c1ccc(C(=O)Nc2ccnc3[nH]ccc23)cc1 + CN(NC(=O)CC(=O)NN(C)C(=S)c1ccccc1)C(=S)c1ccccc1 [STA4783] (first compound 0.4 µM, partner dose 0.006 µM)	290%	475%	60.6%	59%	571%	71.2%	34.6%	101%	241%	1130%
CC(=O)O[C@@]12CO[C@@H]1C[C@H](O)[C@@]1(C)C(=O)[C@H](O)C3=C(C)[C@@H](OC(=O)[C@H](O)[C@@H](NC(=O)OC(C)(C)C)c4ccccc4)C[C@@](O)([C@@H](OC(=O)c4ccccc4)[C@H]21)C3(C)C [Docetaxel] + O=C(O)C(=O)Nc1sc2c(c1C(=O)O)CCNC2 [TCS401] (first compound 0.0001 µM, partner dose 1.66667 µM)	434%	556%	185%	121%	598%	629%	232%	169%	348%	640%
